Data: publication PMC6925144, “A prospective compound screening contest identified broader inhibitors for Sirtuin 1” (Scientific Reports, 2019)
Over roughly 3,200 compounds, “TSA(with NAD+) / Primary screening (TSA) / delta Tm (K)” has its median near -0.04; the highest 2% begin near 0.37. The list shows a part of the results.

By UniProt entry, the sequences of proteins in these tests, tags left out. Residues count along the entry.
UniProt Q96EB6, 2-747 limits assumed: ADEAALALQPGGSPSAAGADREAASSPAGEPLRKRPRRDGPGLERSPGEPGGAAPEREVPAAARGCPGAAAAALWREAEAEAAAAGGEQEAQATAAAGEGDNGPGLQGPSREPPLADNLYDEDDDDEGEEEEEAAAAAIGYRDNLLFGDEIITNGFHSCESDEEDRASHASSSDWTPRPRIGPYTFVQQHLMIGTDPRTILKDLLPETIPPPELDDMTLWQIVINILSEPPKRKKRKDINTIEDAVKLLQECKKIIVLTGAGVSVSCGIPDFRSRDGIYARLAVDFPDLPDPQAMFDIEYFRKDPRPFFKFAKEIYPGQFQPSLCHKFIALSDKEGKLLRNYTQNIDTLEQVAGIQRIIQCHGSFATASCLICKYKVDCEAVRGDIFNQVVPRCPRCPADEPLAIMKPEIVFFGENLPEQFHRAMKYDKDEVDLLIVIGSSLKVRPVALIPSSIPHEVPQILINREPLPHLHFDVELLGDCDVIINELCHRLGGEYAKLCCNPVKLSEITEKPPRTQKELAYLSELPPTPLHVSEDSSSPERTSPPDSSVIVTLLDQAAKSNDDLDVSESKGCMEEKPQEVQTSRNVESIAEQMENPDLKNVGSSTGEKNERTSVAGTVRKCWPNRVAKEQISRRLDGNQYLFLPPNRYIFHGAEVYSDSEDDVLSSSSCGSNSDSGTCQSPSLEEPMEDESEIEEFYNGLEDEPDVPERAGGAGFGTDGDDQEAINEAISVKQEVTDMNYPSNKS

biological target: NAD-dependent deacetylase Sirtuin 1 (human, UniProt Q96EB6); test: primary screen, delta tm; set-up: single well (n = 1, as 'the same TSA'); settings: 10 µM

Point of comparison: `CN1C(=O)N(CCC23CC4CC(CC(C4)C2)C3)C(=O)C12CCCCC2`, “TSA(with NAD+) / Primary screening (TSA) / delta Tm (K)” value 0.03 K. Against it:
- Cc1nn(C)c2ncc(S(=O)(=O)N(C)c3ccc(F)cc3)cc12 — higher, 0.12 K
- O=C(C1CCN(c2cc(=O)n3ccccc3n2)CC1)N1CCCCC1 — higher, 0.05 K
- COc1ccc(CCNC(=O)CSc2nnc(C)s2)cc1OC — lower, -0.18 K
- Cc1nc(-c2ccccc2)sc1C(=O)C1=C(O)C(=O)N(CCN2CCOCC2)C1c1cccs1 (centres unmarked) — lower, -0.01 K
- COc1cc(CN(C)C(=O)Cc2c[nH]c3ccccc23)ccc1OCc1ccccc1 — lower, -0.22 K
- O=C(NCC1CC2c3ccccc3C1c1ccccc12)c1cnccn1 (centres unmarked) — higher, 0.08 K
- COc1ccccc1/C=C1/Oc2cc(O)ccc2C1=O — lower, -0.04 K
- Cc1nc(-c2cccc(N3CC(C(=O)O)CC3=O)c2)oc1C (centres unmarked) — lower, -0.06 K
- NCCN1CCC1 — lower, 0.01 K
- CNCC1CCN(S(=O)(=O)c2ccc(C#N)cc2C)CC1 — lower, -0.01 K
- C#CCC(Nc1nc(-c2cccnc2)nc2ccccc12)C(N)=O (centres unmarked) — lower, -0.23 K
- CN(CCO)c1ncnc2c1oc1ccccc12 — lower, -0.32 K
- Cc1nc2c(cc1C(=O)N(C)C)c(C)nn2C — lower, -0.05 K
- C#CCC(NC(=O)c1cccc(S(=O)(=O)N(C)c2ccc(C)cc2)c1)C(N)=O (centres unmarked) — lower, -0.22 K
- CC1(C)CCC(NC(=O)c2ccc3c(c2)C(=O)NC3=O)c2ccccc21 (centres unmarked) — higher, 0.16 K
- COc1cccc(/C=C/C(=O)N2CCC(CC(N)=O)CC2)c1OC — the same, 0.03 K
- CN(c1cccnn1)C1CCN(c2ncnc3c2oc2ccccc23)CC1 — lower, -0.01 K
- NC(=O)CN(Cc1ccc(OCc2ccccc2)cc1)C(=O)c1ccncc1 — higher, 0.06 K
- O=c1ccncn1CC1Cc2ccccc2O1 (centres unmarked) — lower, -0.11 K
- Cc1ccc(NC(=O)CN2CCN(C(=O)c3ccc(-c4ccc(F)cc4)o3)CC2)cc1 — lower, -0.11 K
- COc1cccc(CN(C)CC(=O)NC(=O)NCc2ccccc2)c1 — lower, -0.15 K
- Cc1cc(=O)[nH]c(-c2cccc(NC(=O)c3cnc4ccccc4n3)c2)n1 — lower, 0.01 K
- O=C(O)c1cc(S(=O)(=O)NCC2CCCO2)ccc1Br (centres unmarked) — lower, -0.05 K
- O=C(NCc1ccc(C(=O)N2CCCCC2)cc1)c1ccccc1Nc1ccccc1 — higher, 0.06 K
- CCC1(N)CC1 — lower, -0.04 K
- CC1CCN(Cc2nc(N3CCNC(C(N)=O)C3)c3c4c(sc3n2)CCC4)CC1 (centres unmarked) — lower, -0.13 K
- CCn1c(C(=O)Nc2ccc3nc[nH]c(=O)c3c2)cc2ccccc21 — lower, -0.13 K
- Cn1ncc2c(=O)n(CC(=O)N3CCCc4c(C(N)=O)cccc43)cnc21 — lower, -0.21 K
- NC(=O)C1CCCCC1NCc1nc2c(s1)CCC2 (centres unmarked) — lower, -0.06 K
- COc1ccc(C(=O)NNC(=O)COc2ccccc2C)cc1S(=O)(=O)NC(C)C12CC3CC(CC(C3)C1)C2 (centres unmarked) — higher, 0.36 K
- O=C(CNC(=O)C12CC3CC(CC(C3)C1)C2)N1CCN(S(=O)(=O)c2ccc3ccccc3c2)CC1 — lower, -0.18 K
- CCCCNC(=O)C1CCN(S(=O)(=O)c2cc(C(N)=O)n(C)c2)CC1 — higher, 0.06 K
- Cc1ccc(C2C(C(=O)c3nc4ccccc4s3)=C(O)C(=O)N2CCCN2CCOCC2)cc1 (centres unmarked) — lower, -0.03 K
- Cc1cc2ccccc2n1CC(=O)NCC(Cc1ccccc1)N(C)C (centres unmarked) — lower, -0.18 K
- CCOc1ccc(CN(C)CC(=O)Nc2oc(C)c3c(C)n[nH]c(=O)c23)cc1 — lower, -0.14 K
- CCn1c(=O)c(=O)[nH]c2cc(C(=O)N(C)Cc3ccc(OCc4ccccc4)c(OC)c3)ccc21 — lower, -0.01 K
- Cc1sc2ncnc(N3CCC(C(N)=O)CC3)c2c1C — higher, 0.06 K
- CN1C(=O)N(CC(=O)Nc2ccc(-n3cnc4ccccc43)nc2)C(=O)C12CCCCC2 — lower, -0.03 K
- Cc1oc2cc(OC(C)C(=O)NCc3ccco3)ccc2c(=O)c1-c1c(F)cccc1Cl (centres unmarked) — lower, -0.14 K
- CC(C)Nc1nnc(S)s1 — lower, -0.06 K
- COc1cc(NC(=O)c2ccco2)c(C(=O)OCc2nc3ccsc3c(=O)[nH]2)cc1OC — lower, -0.11 K
- CCCOCC(=O)O — lower, -0.03 K
- NC(=O)CCN(Cc1ccccc1)C(=O)COC(=O)C12CC3CC(C1)CC(c1ccccc1)(C3)C2 — lower, -0.03 K
- O=C(NC12CC3CC(CC(C3)C1)C2)c1c[nH]n2c1nc(=O)c1ccccc12 — lower, -0.03 K
- Cc1cc(Br)c(NCc2cc(=O)n3ccccc3n2)c(Br)c1 — lower, -0.16 K
- Cc1noc(C(NC(=O)c2cc(C(N)=O)cs2)C(C)C)n1 (centres unmarked) — lower, -0.01 K
- CC(C(=O)N1CCCC1)N1CCN(Cc2csc3ccccc23)CC1 (centres unmarked) — lower, -0.13 K
- CC(N)CN (centres unmarked) — higher, 0.06 K
- Cc1ccc(NS(=O)(=O)c2cccc(C(=O)NC3CCC(CC4CCC(NC(=O)c5cccc(S(=O)(=O)Nc6ccc(C)cc6C)c5)CC4)CC3)c2)c(C)c1 (centres unmarked) — higher, 0.08 K
- CC1CCN(c2ccc(NC(=O)CSc3nnc(NCc4ccco4)s3)cc2)CC1 — lower, -0.18 K
- Cc1ccc(-n2cnc3c2CCNC3)cc1 — lower, -0.16 K
- CS(=O)(=O)NCC1CCCN(C(=O)c2ccc3[nH]c4c(c3c2)CCCCC4)C1 (centres unmarked) — lower, -0.04 K
- O=C(NCCc1c[nH]c2ccccc12)c1c[nH]cnc1=O — lower, -0.05 K
- Cc1cccc(Cc2cnc(NC(=O)c3cc4c(C)nn(-c5ccccc5)c4s3)s2)c1 — higher, 0.16 K
- Cc1nc(-c2ccc(CCNC(=O)CN3CCCCCCC3=O)cc2)cs1 — lower, -0.28 K
- Nc1nccnc1C(=O)NCC1CC2c3ccccc3C1c1ccccc12 (centres unmarked) — lower, -0.38 K
- CC(C)Oc1ccc(C(=O)C2=C(O)C(=O)N(CCCN3CCOCC3)C2c2ccncc2)cc1 (centres unmarked) — higher, 0.08 K
- Cn1ncc2c(N3CCN(CCC(=O)Nc4sccc4C(N)=O)CC3)ncnc21 — lower, -0.13 K
